# Results are given in words; binding and its absence hold for the method and conditions named. Binding seen in cells or lysates may run through a third protein. Some results given as binding are weak or reduced against the parent protein; the word gives no strength.
# T1: High mobility group box 1 (rat (endogenous in BMSCs)), P63159
# T1 chain: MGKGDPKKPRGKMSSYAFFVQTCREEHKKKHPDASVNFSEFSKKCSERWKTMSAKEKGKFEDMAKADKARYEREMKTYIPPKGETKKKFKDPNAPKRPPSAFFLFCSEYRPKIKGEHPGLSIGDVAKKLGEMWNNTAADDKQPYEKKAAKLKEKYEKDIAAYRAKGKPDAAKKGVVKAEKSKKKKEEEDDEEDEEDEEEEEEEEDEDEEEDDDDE
# B1: receptor for advanced glycation end products, Q63495 23-402 (receptor)
# chain: GQNITARIGEPLMLSCKGAPKKPTQKLEWKLNTGRTEAWKVLSPQGDPWDSVARILPNGSLLLPAIGIVDEGTFRCRATNRLGKEVKSNYRVRVYQIPGKPEIVNPASELTANVPNKVGTCVSEGSYPAGTLSWHLDGKPLIPDGKGTVVKEETRRHPETGLFTLRSELTVTPAQGGTTPTYSCSFSLGLPRRRPLNTAPIQPRVREPLPPEGIQLLVEPEGGTVAPGGTVTLTCAISAQPPPQIHWIKDGTPLPLAPSPVLLLPEVGHEDEGIYSCVATHPSHGPQESPPVNIRVTETGDEGQAAGSVDGSGLGTLALALGILGGLGIAALLIGAILWRKRQPRLEERKAPESQEDEEERAELNQSEEAEMPENGAGGP
# Target: T1, High mobility group box 1 (rat …)
# Assay: co-IP; lysates of rat BMSCs kept in NG (5.5 mM glucose), HG (35 mM glucose) or HG+GL (35 mM glucose + 10 uM glycyrrhizin) medium, incubation for 3 days; precipitated with anti-HMGB1 antibody and protein A/G plus agarose at 4°C, blotted with anti-RAGE antibody; lysis buffer 140 mM NaCl, 1 mM EDTA, 10% glycerol, 1% NP40, 20 mM Tris-HCl pH 7.5
# Conditions: remark: other sources report otherwise
binder,measurement,value
B1,binding,binds

# Reference: article PMC6939424
